The record followed here is patent US20170035742A1, “DURABLE TREATMENT WITH 4-AMINOPYRIDINE IN PATIENTS WITH DEMYELINATION” (Acorda Therapeutics, Inc., priority 2009, published 2017).

The subject of the series is patients with multiple sclerosis. The experiment in a line: MS-F203EXT open-label extension study.

Structures are written as SMILES.

`Nc1ccncc1` [4-aminopyridine] gave a retention rate (after one year) of 82.9% and a retention rate (after two years) of 75%.
